Laboratory results: PubChem BioAssay AID1347423 (Functional Genomics Laboratory (NCATS/FGL), 2020)
Among all 52,000 sequences or so, about 210 (0.4%) were called active.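 Rule for the calls: active = gene whose silencing raises cell survival under the drug, median off-target-corrected z-score across its silencing RNAs 2 or more; inactive = the rest.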 The list shows a part of the results.

Assay: Resistance to Poly (ADP-Ribose) Polymerase inhibitor: Gene Identification via Genome-wide siRNA Screen
Conditions: mouse BRCA2 R2336H ES cells, olaparib, CellTiter-Glo viability; active compounds read high
Summary of the method: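 Mouse BRCA2 R2336H ES cells were reverse-transfected with siRNA (20 nM final), treated at 48 h with 500 nM olaparib, and read by CellTiter-Glo after 72 h. Scores: MAD-based z per siRNA, median per gene, seed off-target correction.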

Sequence | z-score
GGAUAAAUGUCGUUAUAACTT against Zdhhc17 | inactive: 0.527
GGCACUGAAAAUAUAUUUGTT against Cs | inactive: -0.0447
GCUCUCCAUUACGUGCUUGTT against Rnu3ip2 | inactive: -0.988
GGAACUCCAGCAACUGCCATT against Plpi | inactive: -1.15
GCGACCUUGAAUGGAUUCGTT against Rps29 | inactive: -0.8
GGUGAUCAGUGCCUACAGATT against BC024868 | inactive: -0.5
GGGAAAGGAAGAUGAUAUCTT against 4930511H01Rik | inactive: 0.26
CCCAAUUCCUUAACUAUUATT against Cd209a | inactive: 0.697
GGUGAACUUGGCAGAGCUGTT against Prdx5 | inactive: -1.25
UCCUUCAUUUGAAUGCAAGTT against Hist3h2bb | inactive: -0.184
GGAGCUCCUUAUGAAACUGTT against 2310050B20Rik | inactive: -1.09
GGAGCUACCUGCAUGAUGATT against 4930546H06Rik | inactive: 0.722
CCACAGACCUCACUUUUGGTT against 2810410M20Rik | inactive: -1.66
GUAUCAGCCGAGCAACAUCTT against Mrpl34 | inactive: -0.232
CGCCAUCCCAUGUUACUCUTT against Papss2 | inactive: -0.585
GGCCACAUUGUCCUAUCAGTT against Cdh16 | inactive: 1.37
GUUUGGAGUGAUGAUUGAGTT against Pla2g2e | inactive: -0.182
GCCUGGUACAGAACCAGUATT against Ntsr2 | inactive: 0.908
GGCUUUGGACAGAAUGUGGTT against Itgam | inactive: -0.477
GGAAAAAGAGUCCUUCAUGTT against A730017C20Rik | inactive: 1.13
GGCAGAUGGCAAAGAAUUATT against Pbxip1 | inactive: 0.792
GGCUUUCUUUCCCAUCGAUTT against Dpf2 | inactive: 0.139
GGCCUCAGACCUUCUAUGATT against Mtap | inactive: 1.56
GGAUCAAUCAAUGACAGUGTT against Tbn | inactive: -0.996
GGGAGAUGCAACAACAAGATT against Epx | inactive: 1.18
GGUGUGAGUGUAAGUUUAUTT against Wnt16 | inactive: 0.371

Sequence | z-score
GGCAACUGUUUCUGCUCCGTT against Ap4e1 | inactive: 1.07
GGGAGAAGAAAACUGGCUATT against Pnlip | inactive: 0.259
CCGAUGCAUCUGCUUUAUUTT against 4931419K03Rik | inactive: -0.514
GGCAACUUUUUACACAAAGTT against V1rc7 | inactive: 0.139
GGCCUUUUACAAUGGAACCTT against Slc2a9 | inactive: 0.844
CCCUAGAGGCAGAUGCAAATT against MGC54654 | inactive: 0.199
GGUGUUGCAUUCAGAUUUUTT against Ian4 | inactive: -0.696
GCCUACAGAGAUCUAUAAUTT against Gmds | inactive: -0.896
GGUCGAAGUGGACAUCUUUTT against Grik4 | inactive: 0.612
GGAUGCUAUUGUGAAUGUGTT against Dnmt3b | inactive: -1.53
GGAUAACUUUAUGAAUGAGTT against Loxl3 | inactive: 0.414
GGCUUCUUCCUAGAAAUGCTT against 0610012H03Rik | inactive: 0.436
GGAACACAAUGGGACGAGUTT against Ccl11 | inactive: 0.233
GCUAGGAACGAGGAGCUAATT against B230206N24Rik | inactive: -2.7
GGCCGGAUGGCUCCAUUAUTT against Mmp28 | inactive: -2.48
GGUAAAGAAAGCCUUUUUUTT against Prkag1 | inactive: 0.254
GCCCUUCAAAAGGAGCAGUTT against Cap1 | inactive: -0.833
CCAGAUUGGUGAUGGUAGUTT against LOC432637 | inactive: 0.502
GCACCAAGCGUGUAAAAACTT against Mterf | inactive: 1.65
GGUACUAUUAACAAACACUTT against BB128963 | inactive: -0.282
GCGGAGGCAUUGCUAAUGATT against 0610027B03Rik | inactive: 0.715
CGCUACCUACAGAAUAACATT against 4933440H19Rik | inactive: -0.672
GGCUGCUUUACUGAAGUAATT against 1700052H20Rik | inactive: -1.27
GCCUAUACAACCCUAUUGUTT against 9030409G11Rik | inactive: 0.173
GCAACUUCUAAAGGUCCUATT against D130038B21Rik | inactive: 1.03
GGAGAGCAGUGAUAACCAGTT against C530008M17Rik | inactive: -0.436

Another view of part of the listing above.

| Sequence | z-score |
| --- | --- |
| GGGAGAUGCAACAACAAGATT against Epx | inactive: 1.18 |
| GGUGUGAGUGUAAGUUUAUTT against Wnt16 | inactive: 0.371 |
| GGCAACUGUUUCUGCUCCGTT against Ap4e1 | inactive: 1.07 |
| GGGAGAAGAAAACUGGCUATT against Pnlip | inactive: 0.259 |
| CCGAUGCAUCUGCUUUAUUTT against 4931419K03Rik | inactive: -0.514 |
| GGCAACUUUUUACACAAAGTT against V1rc7 | inactive: 0.139 |
| GGCCUUUUACAAUGGAACCTT against Slc2a9 | inactive: 0.844 |
| CCCUAGAGGCAGAUGCAAATT against MGC54654 | inactive: 0.199 |
| GGUGUUGCAUUCAGAUUUUTT against Ian4 | inactive: -0.696 |
| GCCUACAGAGAUCUAUAAUTT against Gmds | inactive: -0.896 |
| GGUCGAAGUGGACAUCUUUTT against Grik4 | inactive: 0.612 |
| GGAUGCUAUUGUGAAUGUGTT against Dnmt3b | inactive: -1.53 |
| GGAUAACUUUAUGAAUGAGTT against Loxl3 | inactive: 0.414 |
| GGCUUCUUCCUAGAAAUGCTT against 0610012H03Rik | inactive: 0.436 |
| GGAACACAAUGGGACGAGUTT against Ccl11 | inactive: 0.233 |
| GCUAGGAACGAGGAGCUAATT against B230206N24Rik | inactive: -2.7 |
| GGCCGGAUGGCUCCAUUAUTT against Mmp28 | inactive: -2.48 |
| GGUAAAGAAAGCCUUUUUUTT against Prkag1 | inactive: 0.254 |
| GCCCUUCAAAAGGAGCAGUTT against Cap1 | inactive: -0.833 |
| CCAGAUUGGUGAUGGUAGUTT against LOC432637 | inactive: 0.502 |
| GCACCAAGCGUGUAAAAACTT against Mterf | inactive: 1.65 |
| GGUACUAUUAACAAACACUTT against BB128963 | inactive: -0.282 |
| GCGGAGGCAUUGCUAAUGATT against 0610027B03Rik | inactive: 0.715 |
| CGCUACCUACAGAAUAACATT against 4933440H19Rik | inactive: -0.672 |
| GGCUGCUUUACUGAAGUAATT against 1700052H20Rik | inactive: -1.27 |

The list continues.

Sequence | z-score
CCAAAGAUUGCUUUCACAATT against Ube2d1 | inactive: -1.6
CGGUCCUGAAUGAUCCUACTT against Gp2 | inactive: 2.43
GCUGCCUCAUUUCUGGAUGTT against 2310015I08Rik | inactive: -1.36
CGAUGAUAACGAAAUGAACTT against Scn3a | inactive: 0.178
CCUUCUAGACACCAUACCCTT against Lrdd | inactive: -0.398
GGUUUAUGACAAACUGAAATT against Enpp4 | inactive: 0.306
GGAAGAUUCAUGUUCCUAUTT against Mug1 | inactive: 0.629
GGAACAUCAUCCACUGGAATT against Crhr1 | inactive: 0.111
GGGCUGUUUAACAAGAUCATT against BC052066 | inactive: 0.108
GGACUUAAAAGUCACAUCATT against Tcf4 | inactive: 0.936
GCUUGAAUGUUAAAGCCAATT against Fbxo34 | inactive: -1.49
GGUGGAGAUUAUUCAUGUUTT against Dpp8 | inactive: 0.565
CCUCGGCGAGAUAUUGUGUTT against Gal3st1 | inactive: 0.152
GGACUUGAUGACAGUGAAUTT against 2610019A05Rik | inactive: -1.85
GGGAGCAAAGAGGAACAGCTT against Ttc11 | inactive: 2.32
GCAGCUUGUGCAUAUUUGATT against Gm433 | inactive: -0.321
GGAAAAGCUCAAUGUCCUCTT against Tex13 | inactive: 0.051
GGGAAAGGGCAUUUUCUUUTT against Znrf1 | inactive: 0.879
GGAGAGUGAUGAACAGAUGTT against Pctp | inactive: -1.27
AUCCCAAAGUUCGUUGUUATT against Olfr307 | inactive: 0.474
CCCAUUUAUUCUCCUUUAUTT against Smurf1 | inactive: -1.22
CGAUGAUAAAACGAACAAGTT against 4833424O15Rik | inactive: -1.35
GCUACGAAUACAUGCGACATT against Plekhj1 | inactive: 0.752
CGUACAACAACUAACUUUATT against Ube2v2 | inactive: 1.07
GGUGGGAUUGUUCUUAAAUTT against Drap1 | inactive: 0.656
GGAACAAAGAAAUGCAAUATT against Ncr1 | inactive: 0.348

Sequence | z-score
GGAGAAAUGGAUCACAUUGTT against H2afx | inactive: -1.36
GGAUUUCGAGAACAACCUCTT against Daf1 | inactive: -0.275
GGCUGAUCGACUUAGAGCUTT against Pkp3 | inactive: 0.119
GGCCUUUGUUCAGUCCUCCTT against Zfp371 | inactive: 0.816
GGACAAUUCCAUGCUUCCCTT against Il24 | inactive: 0.803
CCAGUAUGAGAACUACGAUTT against Loxl1 | inactive: 1.13
GGAUAGUCAUCAACAGAGCTT against Psma7 | inactive: 3.54
GGACUUGGAGCUGAAAUUGTT against Uble1a | inactive: -1.55
GGAUGAACCAAACCAAUAATT against 4933434I20Rik | inactive: -0.37
GGUGGAUUUGACUAUGCCCTT against Ptprv | inactive: -0.0396
GGGAAUUCAUUGAGAAAUATT against Anxa6 | inactive: 0.0236
GGCGGAGAGGAAAUCUAUGTT against Mycs | inactive: 0.0986
GGACCAGACGAACAGUGAUTT against Surf2 | inactive: 0.102
AGGCCUUCAAUAUCCCAUCTT against Zfp457 | inactive: 0.943
GGAGGAAAUUAUAAACAAGTT against Ifit1 | inactive: 1.03
AUGUUUGAGAGCGACUUUATT against LOC432552 | inactive: 0.157
CCUACUGACGGGAUGAAGUTT against BC037135 | inactive: -0.813
GGAUGAGGGAACGUACAUUTT against Il18r1 | inactive: 0.361
GUCAAAACACUCACGUACCTT against Mustn1 | inactive: 0.667
GGAUGUGGACUCAAAGAAATT against 1110001E17Rik | active: 1.9
GGACCAUCUCUUUCAUUGCTT against Olfr1125 | inactive: 0.456
CCAUAUCUCAUCCUACAGCTT against Tnk1 | inactive: -0.292
GGUUGGUCAGAUGAAGGGUTT against Gpr113 | inactive: -0.781
CCUACUUACUCCUGUAUAATT against Adam3 | inactive: -1.13
GCCGAAGUAGCCAAAGCUATT against Cyln2 | inactive: -0.151
GGCUCUAAAUUUUUUGUUCTT against 1110021N07Rik | inactive: -0.184
